Results: PubChem BioAssay AID743255 (National Center for Advancing Translational Sciences (NCATS), 2014)
The whole screen tested about 390,000 compounds, of which about 910 (0.23%) were called active. The inconclusive results got no clear call from the source; some entries with a clear call stand among them for comparison. Calls follow the shape of the dose curve; as a rule, active = well fitted inhibition curve with a large enough effect; inconclusive = small, poorly fitted or top-dose-only effect; inactive = no such curve, though single readings can be large or run the other way. Potencies of inconclusive entries are doubtful fits and often do not repeat.

Amino acid sequences for entries named in this document (tags omitted). A change or cut given only in a name is not applied to a line headed by its entry.
UniProt O94782: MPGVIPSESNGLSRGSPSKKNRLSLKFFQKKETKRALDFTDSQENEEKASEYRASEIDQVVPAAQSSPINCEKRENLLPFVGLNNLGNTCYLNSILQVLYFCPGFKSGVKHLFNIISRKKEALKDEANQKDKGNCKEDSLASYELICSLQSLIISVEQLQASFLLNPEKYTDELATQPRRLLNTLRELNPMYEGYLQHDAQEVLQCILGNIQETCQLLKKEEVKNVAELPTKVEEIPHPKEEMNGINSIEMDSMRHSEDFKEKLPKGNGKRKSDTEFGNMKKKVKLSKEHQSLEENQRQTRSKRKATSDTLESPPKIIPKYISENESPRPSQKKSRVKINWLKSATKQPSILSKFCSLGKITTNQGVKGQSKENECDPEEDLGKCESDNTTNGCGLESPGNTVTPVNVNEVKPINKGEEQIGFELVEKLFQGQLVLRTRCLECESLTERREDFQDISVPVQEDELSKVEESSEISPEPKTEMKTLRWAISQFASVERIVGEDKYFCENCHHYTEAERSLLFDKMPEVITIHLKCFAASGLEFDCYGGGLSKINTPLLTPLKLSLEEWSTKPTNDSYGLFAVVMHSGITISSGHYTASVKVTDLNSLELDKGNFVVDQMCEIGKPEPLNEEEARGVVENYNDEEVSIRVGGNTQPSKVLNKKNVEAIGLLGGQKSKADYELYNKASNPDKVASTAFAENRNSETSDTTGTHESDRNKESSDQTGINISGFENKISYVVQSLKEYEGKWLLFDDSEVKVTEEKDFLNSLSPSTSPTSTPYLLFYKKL

Each compound was assayed against Ubiquitin carboxyl-terminal hydrolase 1 (Homo sapiens) (UniProt O94782) (assay: Inhibitors of USP1/UAF1: Primary Screen). Conditions: recombinant USP1/UAF1, Ub-Rhodamine cleavage fluorescence; activity change, negative = inhibition: at 57.1 µM (top of the series).
In short: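 USP1/UAF1 complex (1 nM) preincubated 15 min at room temperature with compound, then Ub-Rho substrate (150 nM final) added. Kinetic fluorescence at 480/540 nm over 6 reads at 60 s intervals; 50 mM HEPES pH 7.8, 0.5 mM EDTA, 0.1 mg/ml BSA, 1 mM TCEP, 0.01% Tween-20.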
% is scaled to controls: 0 for no effect and ±100 for the full control effect; potency is read from the fitted curve at half-maximal effect.
Also: nearly all actives have a fitted effect of over 60% in size.

Potency, inconclusive:
COc1ccccc1N1CCN(C(=O)/C=C/c2cccc([N+](=O)[O-])c2)CC1 0.282 µM [inhibitor, full curve, poor fit], Cc1ccc(Cn2c(CCC(=O)O)nc3ncccc3c2=O)cc1 1.41 µM [inhibitor, partial curve, poor fit], CCOc1ccccc1C(=O)Nc1c(C(=O)Nc2ccc(F)cc2)oc2ccccc12 8.91 µM [inhibitor, full curve, poor fit], Cn1c(=O)c(=O)n(C)c2cc(S(=O)(=O)CCC(=O)Nc3ccc(F)cc3)ccc21 5.62 µM [inhibitor, partial curve], COc1ccc(Nc2cc(C(=O)NC3CCC(C)CC3)c3ccccc3n2)cc1OC (stereo unspecified) 0.708 µM [inhibitor, full curve, poor fit], CN(/N=C/c1cc(Cl)cc(Cl)c1O)C(=S)NC(C)(C)C 28.2 µM [inhibitor, partial curve], COC(=O)c1ccc(NC(=O)NCCn2nnc3cc(S(=O)(=O)N(C)C)ccc32)cc1 70.8 µM [inhibitor, partial curve, poor fit], COCOCCn1cc(CN2CCS(=O)(=O)N(Cc3ccc(-c4ccccc4)cc3)C(CC(C)C)C2=O)nn1 (stereo unspecified) 0.282 µM [inhibitor, full curve], Nc1ccccc1SCc1csc(-c2ccc(Cl)cc2)n1 44.7 µM [inhibitor, partial curve, poor fit], CC(=O)Nc1ccc(NC(=O)CSc2nc3ccccc3nc2N2CCC(C)CC2)cc1 31.6 µM [inhibitor, partial curve, poor fit], COc1cccc(CNC(=O)c2cc(S(=O)(=O)N3CCCCC3)cn2C)c1 2 µM [inhibitor, full curve], CCc1ccc(NC(=S)Nc2cccc3cnccc23)cc1 17.8 µM [inhibitor, partial curve, poor fit], CC(C)C[C@H]1CNC(=O)C(=O)N1CC1CCN(CCC(C)(C)C)CC1 7.94 µM [inhibitor, full curve, poor fit], COc1ccc(CNC(=O)c2ccc3c(c2)nc2n3CCOC2)c(OC)c1 0.0398 µM [inhibitor, full curve], Cc1ccc(CN(Cc2ccco2)C(=O)COc2ccc(C(C)C)cc2)cc1 7.94 µM [inhibitor, full curve, poor fit], CN1C(C(=O)Nc2ccc(F)cc2F)=CC(c2ccc3c(c2)OCO3)=NS1(=O)=O 6.31 µM [inhibitor, single point], COc1ccc(C(C)NC(=O)C23CC4CC(CC(C4)C2)C3)cc1 (stereo unspecified) 0.708 µM [inhibitor, full curve, poor fit], Cc1cc(C)c(NS(=O)(=O)c2ccccc2)c(C)c1NS(=O)(=O)c1ccccc1 44.7 µM [inhibitor, partial curve, poor fit], O=C(Nc1ccccc1)c1ccc(Br)o1 39.8 µM [inhibitor, partial curve, poor fit], c1ccc(NCCc2ccccn2)cc1 44.7 µM [inhibitor, single point], CC(C)C(O)C1CCN(Cc2nc(-c3cccs3)no2)CC1 (stereo unspecified) 5.01 µM [inhibitor, single point], Cc1c(NC(=O)c2nc3ccccc3nc2N2CCCCC2)cccc1[N+](=O)[O-] 31.6 µM [inhibitor, partial curve], CC(=O)C1=C(c2ccc(C)c(C)c2)N(C(C)=O)n2c(nnc2-c2ccc(Cl)cc2)S1 2.82 µM [inhibitor, partial curve], CN1C(=O)c2ccc(N3CCCC3)cc2C1=O 31.6 µM [inhibitor, partial curve], O=c1cc(N2CCN(Cc3ccccc3)CC2)[nH]c(=O)n1-c1cccc(C(F)(F)F)c1 39.8 µM [inhibitor, single point], CC(OC(=O)c1ccc([N+](=O)[O-])s1)C(=O)Nc1ncc(Cl)cc1Cl (stereo unspecified) 31.6 µM [inhibitor, partial curve, poor fit], O=C(c1ccc(CSc2nc3ccncc3[nH]2)cc1)N1CCCCC1 4.47 µM [inhibitor, partial curve], NC(=O)[C@H]1CC2(CC(c3cccc(NC(=O)CC(c4ccccc4)c4ccccc4)c3)=NO2)CN1C(=O)c1ccccc1C(=O)c1ccccc1 (stereo partly specified) 35.5 µM [inhibitor, partial curve], CCOC(=O)c1c(NC(=O)c2cccs2)sc(CC)c1-c1cccs1 28.2 µM [inhibitor, partial curve], COc1cccc(N2CC(NC(=O)c3cccc(OC)c3OC)CC2=O)c1 (stereo unspecified) 0.316 µM [inhibitor, full curve, poor fit], NC(=O)c1c(NC(=O)c2c(F)cccc2F)sc2c1CCN(Cc1ccccc1)C2 50.1 µM [inhibitor, partial curve, poor fit], COc1ccc(-c2cc(=Nc3c(C)n(C)n(-c4ccccc4)c3=O)c3ccccc3o2)cc1 89.1 µM [inhibitor, partial curve, poor fit], CNC[C@H]1Oc2c(NS(=O)(=O)c3cccs3)cccc2C(=O)N([C@H](C)CO)C[C@@H]1C 7.08 µM [inhibitor, partial curve, poor fit], COc1cc(/C=C2\C(=N)N3N=C(S(C)(=O)=O)SC3=NC2=O)cc(OC)c1OCCOc1ccccc1C 2 µM [inhibitor, full curve, poor fit], CCCOC(=O)c1ccc(Oc2cn[nH]c2-c2ccc(OCC)cc2O)cc1 44.7 µM [inhibitor, partial curve], Nc1ccc2oc3ccc(N)cc3c(=O)c2c1 39.8 µM [inhibitor, single point], Cc1ccc(Cl)cc1NC(=O)C(=O)NCC(c1cccnc1)N1CCc2ccccc21 (stereo unspecified) 35.5 µM [inhibitor, single point], CCN(CCCNS(=O)(=O)c1ccc2c(c1)CCN2C(C)=O)c1cccc(C)c1 1.58 µM [inhibitor, partial curve, poor fit], c1ccc(CN(Cc2ccco2)C(c2ccncc2)c2nnnn2C2CCCC2)cc1 (stereo unspecified) 31.6 µM [inhibitor, single point], Cc1ccn2c(=O)cc(COc3ccc(NC(=O)c4ccccc4F)cc3)nc2c1 0.1 µM [inhibitor, full curve], O=C(CSc1ccccc1)Nc1ccc(-c2nc3ccccc3[nH]2)cc1 44.7 µM [inhibitor, partial curve, poor fit], O=C(CNC(=O)c1cccs1)OCC(=O)c1ccc(Br)cc1 1.26 µM [inhibitor, full curve, poor fit]

Potency, active:
O=C(O)CSc1cc(NS(=O)(=O)c2ccc(Br)cc2)c2ccccc2c1O 35.5 µM

Activity change, negative = inhibition, inconclusive:
COC(=O)c1ccccc1NC(=O)Nc1nnc(N2CCC(C)CC2)s1 -33.4% [inhibitor]

Activity change, negative = inhibition, inactive:
Cc1cc(C)c(-c2c(O)c3cnn(-c4ccccc4)c3[nH]c2=O)c(C)c1 -17%, CCOc1cc(N2CCOCC2)c(OCC)cc1NC(=O)Cc1cccc(OC)c1 -6%, Cc1ccc(C)c(NC(=S)NNC(=O)c2ccco2)c1 -12.6%, Cc1ccc2cc(CN(Cc3nnnn3Cc3ccco3)CC3CCCO3)c(=O)[nH]c2c1C (stereo unspecified) -4.53%, COc1ccc(CCNC(=O)CSc2nc(O)c(CCC(C)C)c(=O)[nH]2)cc1OC -8.9%, COCC1CCCN(Cc2cn(Cc3ccccc3)nc2-c2cc3ccccc3o2)C1 (stereo unspecified) -14%, COc1cc(CC(=O)OCC(=O)NCc2ccc(C)cc2)cc(OC)c1OC -2.14%, CC(/C=N/NC(=O)c1cccnc1)=C\c1ccccc1 -17.7%, COCCn1nnnc1C(c1cc2cc(OC)c(OC)cc2[nH]c1=O)N1CCN(c2ccc(O)cc2)CC1 (stereo unspecified) -7.86%, Cc1ccc2sc(N3CCN(C(=O)C4=COCCO4)CC3)nc2c1C -9.06%, COc1ccc(OC)c(CCNC(=O)c2csc3c2CCCCC3)c1 -10.9%, O=C1OCC(CO)(CO)N=C1NNc1cc(Cl)ccc1Cl -1.75%, Cc1cc(C)cc(NC(=S)/C(=C(\[O-])c2ccc(Cl)cc2Cl)[n+]2ccccc2)c1 -19%, CCc1ccc(C(=O)Cn2ncc(Cl)c(Cl)c2=O)cc1 -24.1%, Cc1cccc2nc(-c3cccc(NS(=O)(=O)c4ccccc4)c3)cn12 -13.1%, Cc1cc(NC(=O)C2CCN(S(=O)(=O)c3ccc4[nH]c(=O)oc4c3)CC2)ccc1Br -5.13%, CCc1ccc(-n2c(=O)c3c4c(sc3n(CC(=O)c3ccc(Cl)cc3)c2=O)CCC4)cc1 -11%, CCCS/C(N)=N/N=C/c1ccccc1O -7%, Cc1ccc(NC(=O)C2CCN(c3cc(C)nc4c(-c5ccc(Cl)cc5)c(C)nn34)CC2)c(C)c1 -25.9%, Cc1ccc2c(c1)C(c1ccc(F)cc1)N(C(=O)c1ccc(OC(C)C)cc1)CC(=O)N2 (stereo unspecified) -15.9%, Cc1ccc(-n2nnc(C(=O)Nc3cc(F)ccc3F)c2C)cc1F -15.2%, COc1ccc(Nc2nc(N(C)c3ccccc3)nc(N)c2[N+](=O)[O-])cc1 -19.8%
